# Laboratory results taken from the supplement of paper PMC8728848.
# The other results are listed elsewhere or left out.
# B1: EULS2 M1 (Oryza sativa) (protein)
# chain: MVYCRANPNYAMTARNGAVVLAPANPKDEYQHWIKDMRWSTSIKDEEGYPAFALVNKATGQAIKHSLGQSHPVRLVPYNPEVMDESVLWTESRDVGNGFRCIRMVNNIYLNFDAFHGDKYHGGVRDGTDIVLWKLCEGDNQRWKIQPYYILEQKLISEEDLNSAVDHHHHHH
# Assays:
# Test in all cases: glycan array binding signal (z-score within array); higher = stronger binding
# Conditions in all cases: glycan notation: IUPAC condensed, linker removed
# GlcNAc(b1-3)Gal(b1-4)Glc = molecular target: GlcNAc(b1-3)Gal(b1-4)Glc
# Method in brief: (§1)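 Glycan array data came from 3228 arrays in the Consortium for Functional Glycomics database, and only arrays with an available protein sequence were kept. Glycan names were put into IUPAC-condensed notation, and columns mapping to the same glycan were averaged. The binding signal is a within-array Z-score, averaged across arrays of one protein sequence run at different concentrations or buffers and across linkers. A negative Z-score can be read as non-binding.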
# [1] = molecular target: GlcNAc(b1-3)Gal(b1-4)GlcNAc
# Method in brief: as §1
# [2] = molecular target: GlcNAc(b1-3)Gal(b1-4)GlcNAc(b1-2)Man(a1-3)[GlcNAc(b1-3)Gal(b1-4)GlcNAc(b1-2)Man(a1-6)]Man(b1-4)GlcNAc(b1-4)GlcNAc
# Method in brief: as §1
# [3] = molecular target: GlcNAc(b1-3)Gal(b1-4)GlcNAc(b1-2)Man(a1-3)[GlcNAc(b1-3)Gal(b1-4)GlcNAc(b1-2)Man(a1-6)]Man(b1-4)GlcNAc(b1-4)[Fuc(a1-6)]GlcNAc
# Method in brief: as §1
# [4] = molecular target: GlcNAc(b1-3)Gal(b1-4)GlcNAc(b1-2)[GlcNAc(b1-3)Gal(b1-4)GlcNAc(b1-6)]Man(a1-6)[GlcNAc(b1-3)Gal(b1-4)GlcNAc(b1-2)Man(a1-3)]Man(b1-4)GlcNAc(b1-4)GlcNAc
# Method in brief: as §1
# [5] = molecular target: GlcNAc(b1-3)Gal(b1-4)GlcNAc(b1-3)Gal(b1-4)GlcNAc
# Method in brief: as §1
# [6] = molecular target: GlcNAc(b1-3)Gal(b1-4)GlcNAc(b1-3)Gal(b1-4)GlcNAc(b1-2)Man(a1-3)[GlcNAc(b1-3)Gal(b1-4)GlcNAc(b1-3)Gal(b1-4)GlcNAc(b1-2)Man(a1-6)]Man(b1-4)GlcNAc(b1-4)GlcNAc
# Method in brief: as §1
# [7] = molecular target: GlcNAc(b1-3)Gal(b1-4)GlcNAc(b1-3)Gal(b1-4)GlcNAc(b1-2)Man(a1-3)[GlcNAc(b1-3)Gal(b1-4)GlcNAc(b1-3)Gal(b1-4)GlcNAc(b1-2)Man(a1-6)]Man(b1-4)GlcNAc(b1-4)[Fuc(a1-6)]GlcNAc
# Method in brief: as §1
# [8] = molecular target: GlcNAc(b1-3)Gal(b1-4)GlcNAc(b1-3)Gal(b1-4)GlcNAc(b1-2)[GlcNAc(b1-3)Gal(b1-4)GlcNAc(b1-3)Gal(b1-4)GlcNAc(b1-6)]Man(a1-6)[GlcNAc(b1-3)Gal(b1-4)GlcNAc(b1-3)Gal(b1-4)GlcNAc(b1-2)Man(a1-3)]Man(b1-4)GlcNAc(b1-4)[Fuc(a1-6)]GlcNAc
# Method in brief: as §1
# [9] = molecular target: GlcNAc(b1-3)Gal(b1-4)GlcNAc(b1-3)Gal(b1-4)GlcNAc(b1-3)Gal(b1-4)GlcNAc(b1-2)Man(a1-3)[GlcNAc(b1-3)Gal(b1-4)GlcNAc(b1-3)Gal(b1-4)GlcNAc(b1-3)Gal(b1-4)GlcNAc(b1-2)Man(a1-6)]Man(b1-4)GlcNAc(b1-4)GlcNAc
# Method in brief: as §1
# [10] = molecular target: GlcNAc(b1-3)Gal(b1-4)GlcNAc(b1-3)Gal(b1-4)GlcNAc(b1-3)Gal(b1-4)GlcNAc(b1-2)Man(a1-3)[GlcNAc(b1-3)Gal(b1-4)GlcNAc(b1-3)Gal(b1-4)GlcNAc(b1-3)Gal(b1-4)GlcNAc(b1-2)Man(a1-6)]Man(b1-4)GlcNAc(b1-4)[Fuc(a1-6)]GlcNAc
# Method in brief: as §1
# [11] = molecular target: GlcNAc(b1-3)Gal(b1-4)GlcNAc(b1-3)Gal(b1-4)GlcNAc(b1-3)Gal(b1-4)GlcNAc(b1-2)[GlcNAc(b1-3)Gal(b1-4)GlcNAc(b1-3)Gal(b1-4)GlcNAc(b1-3)Gal(b1-4)GlcNAc(b1-6)]Man(a1-6)[GlcNAc(b1-3)Gal(b1-4)GlcNAc(b1-3)Gal(b1-4)GlcNAc(b1-3)Gal(b1-4)GlcNAc(b1-2)Man(a1-3)]Man(b1-4)GlcNAc(b1-4)[Fuc(a1-6)]GlcNAc
# Method in brief: as §1
# [12] = molecular target: GlcNAc(b1-3)Gal(b1-4)GlcNAc(b1-3)Gal(b1-4)GlcNAc(b1-3)Gal(b1-4)GlcNAc(b1-3)Gal(b1-4)GlcNAc(b1-2)Man(a1-3)[GlcNAc(b1-3)Gal(b1-4)GlcNAc(b1-3)Gal(b1-4)GlcNAc(b1-3)Gal(b1-4)GlcNAc(b1-3)Gal(b1-4)GlcNAc(b1-2)Man(a1-6)]Man(b1-4)GlcNAc(b1-4)GlcNAc
# Method in brief: as §1
# [13] = molecular target: GlcNAc(b1-3)Gal(b1-4)GlcNAc(b1-3)Gal(b1-4)GlcNAc(b1-3)Gal(b1-4)GlcNAc(b1-3)Gal(b1-4)GlcNAc(b1-2)Man(a1-3)[GlcNAc(b1-3)Gal(b1-4)GlcNAc(b1-3)Gal(b1-4)GlcNAc(b1-3)Gal(b1-4)GlcNAc(b1-3)Gal(b1-4)GlcNAc(b1-2)Man(a1-6)]Man(b1-4)GlcNAc(b1-4)[Fuc(a1-6)]GlcNAc
# Method in brief: as §1
# [14] = molecular target: GlcNAc(b1-3)Gal(b1-4)GlcNAc(b1-3)Gal(b1-4)GlcNAc(b1-3)Gal(b1-4)GlcNAc(b1-3)Gal(b1-4)GlcNAc(b1-2)[GlcNAc(b1-3)Gal(b1-4)GlcNAc(b1-3)Gal(b1-4)GlcNAc(b1-3)Gal(b1-4)GlcNAc(b1-3)Gal(b1-4)GlcNAc(b1-6)]Man(a1-6)[GlcNAc(b1-3)Gal(b1-4)GlcNAc(b1-3)Gal(b1-4)GlcNAc(b1-3)Gal(b1-4)GlcNAc(b1-3)Gal(b1-4)GlcNAc(b1-2)Man(a1-3)]Man(b1-4)GlcNAc(b1-4)[Fuc(a1-6)]GlcNAc
# Method in brief: as §1
# [15] = molecular target: GlcNAc(b1-3)Gal(b1-4)GlcNAc(b1-3)Gal(b1-4)GlcNAc(b1-3)GalNAc
# Method in brief: as §1
# [16] = molecular target: GlcNAc(b1-3)Gal(b1-4)GlcNAc(b1-3)GalNAc
# Method in brief: as §1
# [17] = molecular target: GlcNAc(b1-3)Gal(b1-4)GlcNAc(b1-3)[GlcNAc(b1-3)Gal(b1-4)GlcNAc(b1-3)]GalNAc
# Method in brief: as §1
# [18] = molecular target: GlcNAc(b1-3)Gal(b1-4)GlcNAc(b1-6)[Gal(b1-3)]GalNAc
# Method in brief: as §1
# [19] = molecular target: GlcNAc(b1-3)Gal(b1-4)GlcNAc(b1-6)[GlcNAc(b1-3)Gal(b1-3)]GalNAc
# Method in brief: as §1
# [20] = molecular target: GlcNAc(b1-3)Gal(b1-4)GlcNAc(b1-6)[GlcNAc(b1-3)]Gal(b1-4)GlcNAc
# Method in brief: as §1
# GlcNAc(b1-3)GalNAc = molecular target: GlcNAc(b1-3)GalNAc
# Method in brief: as §1
# GlcNAc(b1-3)Man = molecular target: GlcNAc(b1-3)Man
# Method in brief: as §1
# [21] = molecular target: GlcNAc(b1-3)[GlcNAc(b1-4)][GlcNAc(b1-6)]GlcNAc
# Method in brief: as §1
# [22] = molecular target: GlcNAc(b1-3)[GlcNAc(b1-6)]Gal(b1-4)GlcNAc
# Method in brief: as §1
# [23] = molecular target: GlcNAc(b1-3)[GlcNAc(b1-6)]GalNAc
# Method in brief: as §1
# [24] = molecular target: GlcNAc(b1-4)Gal(b1-4)GlcNAc
# Method in brief: as §1
# GlcNAc(b1-4)GlcNAc = molecular target: GlcNAc(b1-4)GlcNAc
# Method in brief: as §1
# [25] = molecular target: GlcNAc(b1-4)GlcNAc(b1-4)GlcNAc
# Method in brief: as §1
# [26] = molecular target: GlcNAc(b1-4)GlcNAc(b1-4)GlcNAc(b1-4)GlcNAc(b1-4)GlcNAc
# Method in brief: as §1
# [27] = molecular target: GlcNAc(b1-4)GlcNAc(b1-4)GlcNAc(b1-4)GlcNAc(b1-4)GlcNAc(b1-4)GlcNAc
# Method in brief: as §1
# [28] = molecular target: GlcNAc(b1-4)[GlcNAc(b1-6)]GalNAc
# Method in brief: as §1
# [29] = molecular target: GlcNAc(b1-6)Gal(b1-4)GlcNAc
# Method in brief: as §1
# GlcNAc(b1-6)GalNAc = molecular target: GlcNAc(b1-6)GalNAc
# Method in brief: as §1
# [30] = molecular target: GlcNAc6S(b1-3)Gal(b1-4)GlcNAc
# Method in brief: as §1
# Kdn(a2-3)Gal(b1-3)GalNAc = molecular target: Kdn(a2-3)Gal(b1-3)GalNAc
# Method in brief: as §1
# Kdn(a2-3)Gal(b1-3)GlcNAc = molecular target: Kdn(a2-3)Gal(b1-3)GlcNAc
# Method in brief: as §1
# Kdn(a2-3)Gal(b1-4)Glc = molecular target: Kdn(a2-3)Gal(b1-4)Glc
# Method in brief: as §1
# Kdn(a2-3)Gal(b1-4)GlcNAc = molecular target: Kdn(a2-3)Gal(b1-4)GlcNAc
# Method in brief: as §1
# [31] = molecular target: Kdn(a2-3)Gal(b1-4)[Fuc(a1-3)]GlcNAc
# Method in brief: as §1
# Kdn(a2-6)Gal(b1-4)GlcNAc = molecular target: Kdn(a2-6)Gal(b1-4)GlcNAc
# Method in brief: as §1
# [32] = molecular target: Man(a1-2)Man(a1-2)Man(a1-3)Man
# Method in brief: as §1
# [33] = molecular target: Man(a1-2)Man(a1-2)Man(a1-6)[Man(a1-3)]Man
# Method in brief: as §1
# Man(a1-2)Man(a1-3)Man = molecular target: Man(a1-2)Man(a1-3)Man
# Method in brief: as §1
# [34] = molecular target: Man(a1-2)Man(a1-3)[Man(a1-2)Man(a1-6)]Man
# Method in brief: as §1
binder,measurement,setting,value
B1,glycan array binding signal (z-score),GlcNAc(b1-3)Gal(b1-4)Glc,-0.563
same,glycan array binding signal (z-score),[1],0.2
same,glycan array binding signal (z-score),[2],-0.197
same,glycan array binding signal (z-score),[3],-0.472
same,glycan array binding signal (z-score),[4],1.22
same,glycan array binding signal (z-score),[5],-0.292
same,glycan array binding signal (z-score),[6],1.1
same,glycan array binding signal (z-score),[7],0.217
same,glycan array binding signal (z-score),[8],-0.196
same,glycan array binding signal (z-score),[9],-0.145
same,glycan array binding signal (z-score),[10],-0.036
same,glycan array binding signal (z-score),[11],-0.35
same,glycan array binding signal (z-score),[12],-0.217
same,glycan array binding signal (z-score),[13],0.26
same,glycan array binding signal (z-score),[14],-0.332
same,glycan array binding signal (z-score),[15],-0.152
same,glycan array binding signal (z-score),[16],0.139
same,glycan array binding signal (z-score),[17],0.03
same,glycan array binding signal (z-score),[18],0.017
same,glycan array binding signal (z-score),[19],0.194
same,glycan array binding signal (z-score),[20],-0.02
same,glycan array binding signal (z-score),GlcNAc(b1-3)GalNAc,-0.376
same,glycan array binding signal (z-score),GlcNAc(b1-3)Man,0.199
same,glycan array binding signal (z-score),[21],-0.017
same,glycan array binding signal (z-score),[22],-0.56
same,glycan array binding signal (z-score),[23],0.264
same,glycan array binding signal (z-score),[24],0.075
same,glycan array binding signal (z-score),GlcNAc(b1-4)GlcNAc,0.062
same,glycan array binding signal (z-score),[25],0.138
same,glycan array binding signal (z-score),[26],-0.47
same,glycan array binding signal (z-score),[27],-0.056
same,glycan array binding signal (z-score),[28],0.208
same,glycan array binding signal (z-score),[29],-1.13
same,glycan array binding signal (z-score),GlcNAc(b1-6)GalNAc,-0.67
same,glycan array binding signal (z-score),[30],-0.612
same,glycan array binding signal (z-score),Kdn(a2-3)Gal(b1-3)GalNAc,-0.02
same,glycan array binding signal (z-score),Kdn(a2-3)Gal(b1-3)GlcNAc,-0.695
same,glycan array binding signal (z-score),Kdn(a2-3)Gal(b1-4)Glc,-0.238
same,glycan array binding signal (z-score),Kdn(a2-3)Gal(b1-4)GlcNAc,-0.824
same,glycan array binding signal (z-score),[31],-0.345
same,glycan array binding signal (z-score),Kdn(a2-6)Gal(b1-4)GlcNAc,-0.713
same,glycan array binding signal (z-score),[32],-0.701
same,glycan array binding signal (z-score),[33],-0.128
same,glycan array binding signal (z-score),Man(a1-2)Man(a1-3)Man,0.378
same,glycan array binding signal (z-score),[34],0.091

# Random excerpt: three entries already listed
binder,measurement,setting,value
B1,glycan array binding signal (z-score),[1],0.2
same,glycan array binding signal (z-score),[19],0.194
same,glycan array binding signal (z-score),[6],1.1
